The source of these data is paper doi:10.1101/2022.10.11.511767.

Chains of the proteins cited; added tags and fusions are not shown. Lines headed by an entry give the natural chain unless they say otherwise; changes in a name come on top. Residues count along the entry.
UniProt P06634: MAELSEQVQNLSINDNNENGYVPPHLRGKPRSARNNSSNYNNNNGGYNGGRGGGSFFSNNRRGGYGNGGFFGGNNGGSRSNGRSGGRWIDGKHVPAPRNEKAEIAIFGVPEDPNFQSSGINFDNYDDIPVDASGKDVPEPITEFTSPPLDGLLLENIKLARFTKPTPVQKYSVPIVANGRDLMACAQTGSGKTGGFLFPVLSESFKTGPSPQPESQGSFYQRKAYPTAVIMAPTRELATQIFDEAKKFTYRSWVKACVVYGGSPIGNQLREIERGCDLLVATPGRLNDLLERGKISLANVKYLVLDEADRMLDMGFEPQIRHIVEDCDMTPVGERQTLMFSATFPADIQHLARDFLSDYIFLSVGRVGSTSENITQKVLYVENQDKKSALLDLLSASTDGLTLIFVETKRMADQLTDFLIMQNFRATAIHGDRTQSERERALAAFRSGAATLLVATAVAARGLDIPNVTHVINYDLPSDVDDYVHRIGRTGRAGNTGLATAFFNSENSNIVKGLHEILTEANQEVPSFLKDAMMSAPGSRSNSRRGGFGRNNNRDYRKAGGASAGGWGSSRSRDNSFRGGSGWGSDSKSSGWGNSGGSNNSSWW
N-terminal IDR of Sc Ded1p (residues 1-81): residues 1-81 of P06634
C-terminal IDR of Sc Ded1p (residues 533-604): residues 533-604 of P06634

Results are given in words; binding and its absence hold for the method and conditions named.

Assay [1] has as its target N-terminal IDR of Sc Ded1p (residues 1-81) (S. cerevisiae) (UniProt P06634). The assay can be described thus: NMR titration.
For assay [2], the target named is C-terminal IDR of Sc Ded1p (residues 533-604) (S. cerevisiae) (UniProt P06634). Description: NMR titration.

For the substance “RecA1 domain of Sc Ded1p (residues 82-369) (from UniProt P06634 82-369) (domain or fragment)”, the binding result in assay [1] is reported as “no binding”. Regarding “RecA2 domain of Sc Ded1p (residues 369-535) (from UniProt P06634 369-535) (domain or fragment)”, the binding result in assay [2] is reported as “no binding”.
